Laboratory results as given in patent US20260256144A1, “FUNGICIDAL MIXTURE COMPOSITION COMPRISING SULPHUR” (ADAMA MAKHTESHIM LTD., priority 2022, published 2026).
At least one compound was matched to its structure with a doubt left.

Tests used:
Venturia inaequalis [1] = experiment: Sulphur + Difenoconazole on apple fruits incidence for Venturia inaequalis control; assay type: in vivo; conditions: 4 days after last application, rate 3500 g/ha
Experimental: (§1) Colby's method is used to determine if synergy exists for a combination of active ingredients. According to Colby, the expected action (E) of active ingredients A+B is: [formula] • where E=expected efficacy, A and B=the efficacy of two active ingredients A and B at a given dose. When the percentage of control observed (O) for the combination is greater than the expected (E) percentage, there is a synergistic effect. The synergism ratio (R) is calculated as the ratio between the expected values and observed values. […] The compositions were diluted with water. Each formulation with active ingredient is diluted with water and biological efficacy trials on target fungi are conducted.

Venturia inaequalis [2] = experiment: Apple fruits classes of damage for Venturia inaequalis control; assay type: in vivo; conditions: 14 days after last application, rate 3500 g/ha
Experimental: The fungicidal compounds A (sulphur) and B (mix partner) are formulated as equivalent compositions to eliminate the effects of differing formulation inerts on biological activity. Efficacy of the fungicidal compositions is evaluated with reference to a scale of 0% to 100% in comparison with untreated control plots. 0 means no control and 100 means complete control of the target disease.
(§2) The experiments were conducted by applying commercially available formulations of Sulphur and other mixture partners, alone or with their tank-mixed compositions. The compositions were diluted with water.
(§3) Each formulation with active ingredient is diluted with water and biological efficacy trials on target fungi are conducted.

Ramularia collo-cygni = experiment: Activity against Ramularia collo-cygni in plates; assay type: cell-based; conditions: rate 1400 g/ha
Experimental: as §1

Botrytis cinerea = experiment: Activity against Botrytis cinerea in plates; assay type: cell-based; conditions: rate 1400 g/ha
Experimental: as §1

Zymoseptoria tritici = experiment: Wheat yield increase when applied for Zymoseptoria tritici control; assay type: in vivo; conditions: untreated = 100, rate 2450 g/ha
Experimental: as §2, §3

[3] = tested on: Colletotrichum gloeosporioides; experiment: Activity against Colletotrichum gloeosporioides in plates; assay type: cell-based; conditions: rate 1400 g/ha
Experimental: as §1

Alternaria solani = experiment: Activity against Alternaria solani in plates; assay type: cell-based; conditions: rate 1400 g/ha
Experimental: as §1

In the case of `[S]` [Sulphur], the “Observed % control (O)” value (Venturia inaequalis [1]) is reported as 63.60%, the “Class 1 (%)” value (Venturia inaequalis [2]; class 1 = no damage) is reported as 90.8% and the “Class 2 (%)” value (Venturia inaequalis [2]; class 2 = 2-3 spots per fruit) is reported as 4.2%. The “Class 3 (%)” value (Venturia inaequalis [2]; class 3 = more than 3 spots per fruit) was 5.0%, the “Observed % control (O)” value (Ramularia collo-cygni) was 62.7% and the “Observed % control (O)” value (Botrytis cinerea) was 23.6%. For the same compound, the “Yield increase versus the untreated (%)” value (Zymoseptoria tritici) was 100.12%, the “Observed % control (O)” value [3] was 49.8% and the “Observed % control (O)” value (Alternaria solani) was 58.6%.
